Results deposited as PubChem BioAssay AID493246 (Drosophila RNAi Screening Center, 2011).
Screen: 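Identify essential fly genes by loss of cell viability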 (primary screen). Cell system: Drosophila Kc and S2R+ cells. Reagent: long dsRNA against Drosophila genes. Detection: 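Raw, unnormalised count of remaining cells in each well; per-plate z-scores of cell number underlie the calls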. Scale: Kc cell number and S2R+ cell number: higher = more cells remaining. Rule for the call: 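Active when the per-plate z-score of cell number is 3 or more in the direction of fewer cells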.
The deposit covers about 21,000 reagents; shown is a random part of those that have a named target and a result. Over the whole deposit, 429 (2%) are marked active. 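Values are raw and not normalised between plates; calls rest on per-plate z-scores that were not deposited.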 Names joined by + are all predicted targets of the reagent. Not given: the amount of reagent, the time to read-out.

CG34230 → Kc cell number, rep 1 = 1.52e6; Kc cell number, rep 2 = 1.52e6; S2R+ cell number, rep 1 = 1.03e6; S2R+ cell number, rep 2 = 1.25e6; call = inactive
tra2 → Kc cell number, rep 1 = 1.56e6; Kc cell number, rep 2 = 1.53e6; S2R+ cell number, rep 1 = 1.22e6; S2R+ cell number, rep 2 = 1.29e6; call = inactive
eIF3e → Kc cell number, rep 1 = 1.23e6; Kc cell number, rep 2 = 1.25e6; S2R+ cell number, rep 1 = 8.91e5; S2R+ cell number, rep 2 = 9.74e5; call = inactive
kirre → Kc cell number, rep 1 = 1.45e6; Kc cell number, rep 2 = 1.44e6; S2R+ cell number, rep 1 = 1.08e6; S2R+ cell number, rep 2 = 1.16e6; call = inactive
CG5114 → Kc cell number, rep 1 = 1.86e6; Kc cell number, rep 2 = 1.98e6; S2R+ cell number, rep 1 = 1.05e6; S2R+ cell number, rep 2 = 1.15e6; call = inactive
CR32745 → Kc cell number, rep 1 = 1.12e6; Kc cell number, rep 2 = 1.38e6; S2R+ cell number, rep 1 = 1.06e6; S2R+ cell number, rep 2 = 1.06e6; call = inactive
mus301 → Kc cell number, rep 1 = 1.64e6; Kc cell number, rep 2 = 1.69e6; S2R+ cell number, rep 1 = 1.01e6; S2R+ cell number, rep 2 = 1.00e6; call = inactive
Dhc36C → Kc cell number, rep 1 = 1.52e6; Kc cell number, rep 2 = 1.57e6; S2R+ cell number, rep 1 = 1.23e6; S2R+ cell number, rep 2 = 1.39e6; call = inactive
CG14400 → Kc cell number, rep 1 = 1.50e6; Kc cell number, rep 2 = 1.59e6; S2R+ cell number, rep 1 = 1.27e6; S2R+ cell number, rep 2 = 3.79e5; call = inactive
ND-B22 → Kc cell number, rep 1 = 1.39e6; Kc cell number, rep 2 = 1.46e6; S2R+ cell number, rep 1 = 1.05e6; S2R+ cell number, rep 2 = 1.16e6; call = inactive
SmB → Kc cell number, rep 1 = 1.08e6; Kc cell number, rep 2 = 1.20e6; S2R+ cell number, rep 1 = 8.31e5; S2R+ cell number, rep 2 = 9.44e5; call = inactive
CG15117 → Kc cell number, rep 1 = 1.25e6; Kc cell number, rep 2 = 1.29e6; S2R+ cell number, rep 1 = 9.89e5; S2R+ cell number, rep 2 = 1.02e6; call = inactive
CG7849 → Kc cell number, rep 1 = 1.51e6; Kc cell number, rep 2 = 1.58e6; S2R+ cell number, rep 1 = 1.22e6; S2R+ cell number, rep 2 = 1.34e6; call = inactive
CG33251 (retired record) + CG9915 → Kc cell number, rep 1 = 1.58e6; Kc cell number, rep 2 = 1.64e6; S2R+ cell number, rep 1 = 1.20e6; S2R+ cell number, rep 2 = 1.25e6; call = inactive
